Consider 22 compounds from PubChem BioAssay.

Molecules are shown by their SMILES. This is one part of the list. These are further read-outs of the screen, such as a control signal, another cell line or another target. No call is given for them.

The nature of this assay: protection against mutant huntingtin cytotoxicity, PC12 cells, LDH release (AID 1610). Conditions: PC12 mutant huntingtin toxicity, final LDH at 4 uM, stronger effect = lower value.
Compound `Nc1nc(=S)c2[nH]cnc2[nH]1` had a normalised LDH release of 0.887. Regarding `NS(=O)(=O)c1cc2c(cc1Cl)NC=NS2(=O)=O`, the normalised LDH release worked out at 1.1. The figure for `C[N+](C)(C)CCCCCC[N+](C)(C)C` is 0.659; for `O=C(O)CCC(=O)c1ccc(-c2ccccc2)cc1` it is 1.05; for `COc1ccc2cc3[n+](cc2c1OC)CCc1cc2c(cc1-3)OCO2` it is 0.815. With `CN[C@H](CC(=O)O)C(=O)O` the figure was 0.831; with `CCCCC(CC)CN=C(N)NC(N)=NCCCCCCN=C(N)NC(N)=NCC(CC)CCCC` (configuration not stated), 0.581; with `CC(C)[N+]1(C)C2CC[C@@H]1CC(OC(=O)C(CO)c1ccccc1)C2` (some centres not stated), 0.668. The figure for `COc1ccc(C(=O)c2ccccc2)c(O)c1` is 1.01; for `CON` it is 1.02; for `CCC1(C)CC(=O)NC1=O` (configuration not stated) it is 0.697. Turning to `NCC1CCC(N)C(OC2C(N)CC(N)C(OC3OC(CO)C(O)C(N)C3O)C2O)O1` (configuration not stated), the normalised LDH release came out at 0.952.

Take `CC(=O)OCC(COC(C)=O)OC(C)=O`: the normalised LDH release was found to be 0.777.

On to `NS(=O)(=O)c1cc2c(cc1Cl)NC(CSCc1ccccc1)=NS2(=O)=O`, for which the normalised LDH release came out at 1.03. The figure for `CC(=O)N[C@@H](CCC(=O)O)C(=O)O` is 1.18; for `CCOC(N)=O` it is 0.822; for `CCC(=O)OC1CCC2C3CCc4cc(O)ccc4C3CCC12C` (configuration not stated) it is 1.41. With `CCCCCCc1ccc(O)cc1O` the figure was 0.891. On to `NNC(=O)c1ccncc1`, for which the normalised LDH release stood at 0.879.

Consider `CCn1cc(C(=O)O)c(=O)c2cc(F)c(N3CCNCC3)cc21`, for which the normalised LDH release is 1.09. Compound `CCC(=O)O[C@@H](O[P@](=O)(CCCCc1ccccc1)CC(=O)N1C[C@H](C2CCCCC2)C[C@H]1C(=O)O)C(C)C` yielded a normalised LDH release of 1.31. For the compound `Cc1ccccc1N1C(=O)c2cc(S(N)(=O)=O)c(Cl)cc2NC1C` (configuration not stated), the normalised LDH release was determined as 0.951.
